We go through three substances from article PMC5641085.

By UniProt entry, the sequences of proteins in these tests, tags left out. Where a name states a change or a piece, a line headed by the entry shows the natural chain unless it says otherwise.
UniProt P14780: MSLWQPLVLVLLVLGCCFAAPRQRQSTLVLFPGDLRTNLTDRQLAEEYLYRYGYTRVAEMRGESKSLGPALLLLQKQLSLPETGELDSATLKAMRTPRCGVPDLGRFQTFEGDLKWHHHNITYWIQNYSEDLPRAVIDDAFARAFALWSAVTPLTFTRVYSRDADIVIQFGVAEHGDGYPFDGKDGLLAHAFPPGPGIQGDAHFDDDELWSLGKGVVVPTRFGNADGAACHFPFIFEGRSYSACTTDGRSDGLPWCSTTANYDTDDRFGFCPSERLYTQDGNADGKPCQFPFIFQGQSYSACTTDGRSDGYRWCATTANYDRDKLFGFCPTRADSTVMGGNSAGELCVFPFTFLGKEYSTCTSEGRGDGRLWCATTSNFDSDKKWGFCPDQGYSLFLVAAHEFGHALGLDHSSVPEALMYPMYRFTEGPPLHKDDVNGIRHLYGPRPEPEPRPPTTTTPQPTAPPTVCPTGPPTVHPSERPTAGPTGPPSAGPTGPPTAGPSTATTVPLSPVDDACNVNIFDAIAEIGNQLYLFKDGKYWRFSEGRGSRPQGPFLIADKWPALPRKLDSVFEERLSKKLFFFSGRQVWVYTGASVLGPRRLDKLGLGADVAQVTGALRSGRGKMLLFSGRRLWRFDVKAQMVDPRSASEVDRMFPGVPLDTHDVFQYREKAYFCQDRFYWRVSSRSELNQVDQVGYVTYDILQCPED
UniProt P08253: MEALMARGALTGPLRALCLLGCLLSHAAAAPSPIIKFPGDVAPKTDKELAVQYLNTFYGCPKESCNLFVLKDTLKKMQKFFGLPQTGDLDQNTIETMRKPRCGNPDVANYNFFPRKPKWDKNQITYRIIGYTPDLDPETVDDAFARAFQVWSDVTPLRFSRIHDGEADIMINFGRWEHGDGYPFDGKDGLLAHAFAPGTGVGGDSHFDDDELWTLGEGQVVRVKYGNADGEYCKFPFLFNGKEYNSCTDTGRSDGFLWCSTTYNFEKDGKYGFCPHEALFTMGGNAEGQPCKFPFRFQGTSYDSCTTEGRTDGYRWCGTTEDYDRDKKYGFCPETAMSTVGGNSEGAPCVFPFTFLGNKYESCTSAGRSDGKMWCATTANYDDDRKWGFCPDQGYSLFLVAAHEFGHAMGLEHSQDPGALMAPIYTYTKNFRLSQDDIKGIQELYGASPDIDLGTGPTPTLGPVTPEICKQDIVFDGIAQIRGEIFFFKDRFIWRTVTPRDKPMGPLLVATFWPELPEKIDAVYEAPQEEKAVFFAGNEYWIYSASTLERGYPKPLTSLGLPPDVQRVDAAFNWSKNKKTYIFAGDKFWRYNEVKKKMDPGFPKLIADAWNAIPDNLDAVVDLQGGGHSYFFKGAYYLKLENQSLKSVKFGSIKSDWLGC

No constants are given. Whether binding was seen depends on the method and setting.

The test deals with T1, Ubiquitin-conjugating enzyme E2 J2 (UBE2J2) (human (endogenous in human liver cancer cell lines HCCLM3 or SMMC7721)) (UniProt Q8N2K1).
T1 sequence: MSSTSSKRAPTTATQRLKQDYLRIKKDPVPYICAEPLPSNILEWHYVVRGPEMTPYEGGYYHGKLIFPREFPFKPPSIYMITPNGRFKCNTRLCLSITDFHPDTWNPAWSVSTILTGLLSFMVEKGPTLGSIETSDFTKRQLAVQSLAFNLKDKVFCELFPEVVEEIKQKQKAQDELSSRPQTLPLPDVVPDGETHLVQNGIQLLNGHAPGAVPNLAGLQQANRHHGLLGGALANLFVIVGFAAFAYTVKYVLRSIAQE
As to the kind of experiment: SPR; Biacore X100; anti-UBE2J2 antibody (and normal IgG) immobilised on a CM5 chip by EDC/NHS, blocked with 3% BSA; concentrated RIPA cell lysate injected, washed with HEPES buffer (50 mM HEPES, pH 7.4, 150 mM NaCl); proteins held with UBE2J2 detected by injecting antibodies against them. For orientation: Surface plasmon resonance follows binding to a sensor surface in real time, without labels.
Regarding MMP-9 (from UniProt P14780) (enzyme), the binding result is listed as “no binding”.

As to MMP-2 (from UniProt P08253) (enzyme), the binding result is listed as “no binding”.

Regarding E-Cadherin, the binding result is reported as “no binding”.
